Results are given in words; binding and its absence hold for the method and conditions named. Some entries that bind do so weakly or less than the wild type.
Target: EphA2ΔS-GFP (human) (UniProt P29317)
Test: fluorescence correlation spectroscopy (FCS); live 728 cells stably expressing the GFP-tagged construct, incubated in 1 μg/mL EA1-Fc/Opti-MEM for 20 min before FCS; 37 °C; median of single-cell molecular brightness

Amino acid sequences for entries named in this document (tags omitted). A change or cut given only in a name is not applied to a line headed by its entry. Residues count along the entry.
UniProt P29317, residues 24-903: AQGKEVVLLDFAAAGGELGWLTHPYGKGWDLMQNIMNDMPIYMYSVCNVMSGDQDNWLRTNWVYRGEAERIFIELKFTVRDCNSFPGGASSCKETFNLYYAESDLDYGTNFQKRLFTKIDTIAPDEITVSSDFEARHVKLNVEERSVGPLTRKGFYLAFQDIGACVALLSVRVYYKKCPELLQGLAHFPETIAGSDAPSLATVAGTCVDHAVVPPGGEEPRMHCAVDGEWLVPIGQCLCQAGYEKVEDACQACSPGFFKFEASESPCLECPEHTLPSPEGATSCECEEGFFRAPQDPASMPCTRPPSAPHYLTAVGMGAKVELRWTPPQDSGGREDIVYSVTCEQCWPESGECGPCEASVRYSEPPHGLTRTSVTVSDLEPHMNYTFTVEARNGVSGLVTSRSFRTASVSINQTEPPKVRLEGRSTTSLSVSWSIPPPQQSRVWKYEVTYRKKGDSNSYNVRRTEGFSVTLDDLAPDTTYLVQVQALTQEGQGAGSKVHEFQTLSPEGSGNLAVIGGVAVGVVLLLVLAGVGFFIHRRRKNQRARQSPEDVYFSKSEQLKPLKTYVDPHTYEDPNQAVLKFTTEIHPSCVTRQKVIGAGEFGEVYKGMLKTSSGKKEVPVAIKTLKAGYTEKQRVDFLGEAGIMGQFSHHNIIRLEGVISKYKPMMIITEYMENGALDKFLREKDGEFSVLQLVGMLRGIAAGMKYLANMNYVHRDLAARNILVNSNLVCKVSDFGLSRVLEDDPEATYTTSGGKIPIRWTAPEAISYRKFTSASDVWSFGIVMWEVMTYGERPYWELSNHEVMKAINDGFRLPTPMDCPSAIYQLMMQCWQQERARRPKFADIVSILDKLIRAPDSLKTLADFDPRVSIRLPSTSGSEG

- binding: binds
Substance: EphA2ΔS-GFP (from UniProt P29317 24-903) (receptor)

Reference: PMC5364462
